The text below walks through data of patent US20040052828A1, “Consumable product including consumable component and alpha-keto enamine derivatives” (priority 2000, published 2004).

Where only a bound is given, the exact number is not on record here.

What all share (format): in vivo, human
A short description of series [1]: Tasting of cooling compounds in Vittel mineral water. The method, then: Solutions of 10%-menthol, 10% 5-MPC and 10% MPF, respectively, in ethanol were diluted with Vittel™ mineral water. The solutions were tasted and compared with pure Vittel™ water.
Series [2] has as its system trained panelists. The experiment in a line: Nasal odor threshold and odor quality in water, triangle test by trained panelists. To be noted: for Odor quality: in water; for Odor threshold: nasal odor threshold determined in water, triangle test. The method, then:
(§1) Prior to sensory analysis, the purity of the synthetic taste compounds was checked by GC/MS. Determination of the cooling, as well as the aroma threshold, of the compounds was performed by trained panelists. Nasal odor thresholds (Guth, H.; Grosch, W. J. Am. Oil Chem. Soc. 1993, 70, 513-518), as well as cooling thresholds, were determined by triangle tests using tap water as the solvent. The samples were presented in order of increasing concentrations and the threshold values evaluated in three separate sessions were averaged. The values between individuals and separate sessions differed by not more than one dilution step.

In a further series the test system is mouth cavity. Nature of the series: Evaluation of cooling substances in orange juice. The method, then: Several cooling substances were evaluated in orange juice.
Series [3] deals with trained panelists. The experiment in a line: Cooling threshold in water, triangle test by trained panelists. To be noted: ratio of cooling threshold to odor threshold. As to the method: as §1
The subject of another series is mouth. The experiment in a line: Taste testing of sugar confectionery (candies). As to the method: Sugar (100 g) was heated together with water (15 g) in a beaker on a hot plate. After the mixture became a clear solution, the sugar syrup was heated further until it became viscous due to the evaporation of water. Then 5-MPC (20 mg) and MPF (100 mg), respectively, were added. The viscous liquid was then poured into molds (3 g each) and cooled down to room temperature. The candies, which had been formed in the molds, were demolded and used for taste testing.

Take `CC1CCC(C(C)C)C(O)C1` (single isomer, unassigned; (-)) [(−)-Menthol, reference compound]: the “Flavor: odor/aroma” value in series [1] (10 mg/L in Vittel mineral water) was “mint-like odor”. Moreover, in the series on trained panelists [2], the Odor quality result was “mint-like” and the Odor threshold fell in the range of 0.1 to 0.2 mg/kg. Further, the aroma entry in the series with mouth cavity (20 mg/L in orange juice) was “strong mint-like aroma”. In the series with trained panelists [3], the “Ratio (Cool/Odor)” value stood at 9.5.

Take `CC1=C(N2CCCC2)C(=O)OC1C` (stereo not shown) [2(5H)-DMPF, 4,5-Dimethyl-3-(1-pyrrolidinyl)-2(5H)-furanone]: in the series on trained panelists [2], the Odor quality result is “faintly mint-” and the Odor threshold was 32 to 64 mg/kg. Further, the “Ratio (Cool/Odor)” value in the series with trained panelists [3] worked out at 0.06.

As to `CC1=C(N2CCCC2)C(=O)OC1` [2(5H)-MPF, 4-Methyl-3-(1-pyrrolidinyl)-2(5H)-furanone], the Odor quality result in the series with trained panelists [2] is given as “odorless”. Further, in the series on trained panelists [3], the “Ratio (Cool/Odor)” value is recorded as <<0.01.

With `CC1=C(N2CCCC2)C(=O)CC1C` (stereo not shown) [3,4-DMPC, 3,4-Dimethyl-2-(1-pyrrolidinyl)-2-cyclopenten-1-one], in the series with trained panelists [2], the Odor quality result was “rubber-like” and the Odor threshold was 26 to 43 mg/kg. In addition, the “Ratio (Cool/Odor)” value in the series with trained panelists [3] was determined as 2.0.

In the case of `CC1=C(N2CCCC2)C(=O)C(C)C1` (stereo not shown) [3,5-DMPC, 3,5-Dimethyl-2-(1-pyrrolidinyl)-2-cyclopenten-1-one], in the series on trained panelists [2], the Odor quality entry was “rubber-like” and the Odor threshold is 16 to 27 mg/kg. For the same compound, in the series with trained panelists [3], the “Ratio (Cool/Odor)” value stood at 2.0.

Take `CC1=C(N2CCCC2)C(=O)CC1` [3-MPC, 3-Methyl-2-(1-pyrrolidinyl)-2-cyclopenten-1-one]: in the series with trained panelists [2], the Odor quality result is listed as “faintly” and the Odor threshold was 44 to 73 mg/kg. Besides, the “Ratio (Cool/Odor)” value with trained panelists [3] was 0.8.

For the compound `CC1=C(N2CCCC2)C(=O)CCC1` [3-MPCH, 3-Methyl-2-(1-pyrrolidinyl)-2-cyclohexen-1-one], in the series on trained panelists [2], the Odor quality result was “faintly mint-” and the Odor threshold was in the range of 45 to 75 mg/kg. In the series on trained panelists [3], the “Ratio (Cool/Odor)” value came to 2.0.

On to `CC1=C(N2CCCCC2)C(=O)CC1` [3-MPipC, 3-Methyl-2-(1-piperidinyl)-2-cyclopenten-1-one], for which, in the series with trained panelists [2], the Odor quality entry is “faintly” and the Odor threshold fell in the range of 80 to 120 mg/kg. In the series with trained panelists [3], the “Ratio (Cool/Odor)” value turned out to be 0.8.

For `CC1=C(N2CCCC2C(=O)O)C(=O)CC1` (stereo not shown) [3-MProC, 3-Methyl-2-(2-carboxy-1-pyrrolidinyl)-2-cyclopentene-1-one], in the series with trained panelists [2], the Odor quality result was “odorless”. Moreover, the “Ratio (Cool/Odor)” value in the series on trained panelists [3] is listed as <<0.01.

Consider `CC1C=C(N2CCCC2)C(=O)C1C` (stereo not shown) [4,5-DMPC, 4,5-Dimethyl-2-(1-pyrrolidinyl)-2-cyclopenten-1-one], for which, in the series with trained panelists [2], the Odor quality result is listed as “faintly mint-” and the Odor threshold fell in the range of 136 to 226 mg/kg. The “Ratio (Cool/Odor)” value in the series on trained panelists [3] is recorded as 0.5.

As to `CCC1CC=C(N2CCCC2)C1=O` (stereo not shown) [5-EPC, 5-Ethyl-2-(1-pyrrolidinyl)-2-cyclopenten-1-one], in the series with trained panelists [2], the Odor quality result is recorded as “faintly mint-” and the Odor threshold fell in the range of 13 to 22 mg/kg. The “Ratio (Cool/Odor)” value in the series with trained panelists [3] came to 2.0.

For `COC(=O)C1CCCN1C1=CCC(C)C1=O` (stereo not shown) [5-MMeproC, 5-Methyl-2-(2-methoxycarbonyl-1-pyrrolidinyl)-2-cyclopentene-1-one], the Odor quality result with trained panelists [2] is given as “odorless”. For the same compound, in the series on trained panelists [3], the “Ratio (Cool/Odor)” value was <<0.01.

With `CC1CC=C(N2CCCC2)C1=O` (stereo not shown) [5-MPC, 5-Methyl-2-(1-pyrrolidinyl)-2-cyclopenten-1-one], the “Flavor: odor/aroma” value in series [1] (100 mg/L in Vittel mineral water) was “slight mint-like odor”. Moreover, in the series on trained panelists [2], the Odor quality entry is given as “faintly mint-” and the Odor threshold was in the range of 2.6 to 5.2 mg/kg. In addition, in the series on mouth (20 mg added to syrup of 100 g sugar), the additional flavour quality result is “slightly oily and mint-like”. Moreover, in the series on mouth cavity (200 mg/L in orange juice), the aroma entry is “weak mint-like herbal aroma note”. Besides, the “Ratio (Cool/Odor)” value in the series on trained panelists [3] was 1.7.

As to `CCN(CC)C1=CCC(C)C1=O` (stereo not shown) [5-MdeaC, 5-Methyl-2-diethylamino-2-cyclopenten-1-one], in the series with trained panelists [2], the Odor quality entry is reported as “curcuma-like” and the Odor threshold was in the range of 6.0 to 9.0 mg/kg. In the series on trained panelists [3], the “Ratio (Cool/Odor)” value is 2.1.

For the compound `CC1CC=C(N2CCCCC2)C1=O` (stereo not shown) [5-MpipC, 5-Methyl-2-(1-piperidinyl)-2-cyclopenten-1-one], in the series on trained panelists [2], the Odor quality result is reported as “faintly mint-” and the Odor threshold fell in the range of 12 to 20 mg/kg. Moreover, in the series on trained panelists [3], the “Ratio (Cool/Odor)” value is reported as 2.7.

In the case of `CC1CCC=C(N2CCCC2)C1=O` (stereo not shown) [6-MPCH, 6-Methyl-2-(1-pyrrolidinyl)-2-cyclohexen-1-one], in the series with trained panelists [2], the Odor quality entry is listed as “rubber-like” and the Odor threshold fell in the range of 3.4 to 5.6 mg/kg. The “Ratio (Cool/Odor)” value with trained panelists [3] amounted to 8.0.

Take `CC1=C(N2CCCC2)C(=O)C(C)O1` (stereo not shown) [DMPF, 2,5-Dimethyl-4-(1-pyrrolidinyl)-3(2H)-furanone]: in the series with trained panelists [2], the Odor quality result is reported as “nutty, roasty” and the Odor threshold fell in the range of 30 to 60 mg/kg. The “Ratio (Cool/Odor)” value in the series with trained panelists [3] was determined as 2.7.

With `CC1=C(N2CCCC2)C(=O)CO1` [MPF, 5-Methyl-4-(1-pyrrolidinyl)-3(2H)-furanone], the “Flavor: odor/aroma” value in series [1] (400 mg/L in Vittel mineral water) is “neutral”. Further, the Odor quality entry in the series on trained panelists [2] is “odorless”. In addition, in the series with mouth (100 mg added to syrup of 100 g sugar), the additional flavour quality result was “no additional flavour quality”. The aroma entry with mouth cavity (1000 mg/L in orange juice) was “without any additional aroma sensation”. For the same compound, in the series with trained panelists [3], the “Ratio (Cool/Odor)” value is on record as <<0.01.
